Some of the results follow.
Compound: Cc1cc(ccc1-c1ccccc1)C(=O)N1CCCN(CC1)C(=O)CCl [compound 10]
Test: probe-labelled cysteine peptide fold change vs DMSO (competition) (log2 fold change); higher = less target engagement (more negative = stronger competition)
Settings: THP-1, incubation time: 4 h
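Also: competitive profiling in live THP-1 cells: cysteine peptides tagged with an iodoacetamide desthiobiotin (IA-DTB) probe, intensity after compound treatment relative to DMSO-treated cells.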

Target	probe-labelled cysteine peptide fold change (10 µM)	probe-labelled cysteine peptide fold change (50 µM)
EHMT1_Q9H9B1_1105_LLPEFNMAEPPLIFECNHACSCWR (UniProt Q9H9B1)	0.0315	0.0182
EEA1_Q15075_1402_VCDACFNDLQG (UniProt Q15075)	0.0751	-0.397
EDC4_Q6P2E9_4_ASCASIDIEDATQHLR (UniProt Q6P2E9)	-0.0991	0.278
EGLN1_Q9GZT9_208_HGICVVDDFLGK (UniProt Q9GZT9)	-0.21	-0.244
ECI1_P42126_114_GVILTSDRPGVFSAGLDLTEMCGR (UniProt P42126)	0.00835	0.131
EIF2B4_Q9UI10_437_AHNVPVLVCCETYK (UniProt Q9UI10)	0.0422	-0.0207
EEF1A1P5_Q5VTE0_363+370_GNVAGDSKNDPPMEAAGFTAQVIILNHPGQISAGYAPVLDCHMAHIACK (UniProt Q5VTE0)	-0.198	-1.24
EIF1_P41567_94_KNICQFLVEIGLAK (UniProt P41567)	0.411	-0.602
EIF3B_P55884_302_YWLEEAECRDQYSVIFESGDR (UniProt P55884)	-0.143	0.026
ECT2_Q9H8V3_661_QIFDVVYEVDGCPANLLSSHR (UniProt Q9H8V3)	0.0914	0.0103
EFTUD2_Q15029_476_IEHTYTGGVDSDLGEAMSDCDPDGPLMCHTTK (UniProt Q15029)	-0.27	-0.276
ECPAS_Q5VYK3_1503_EECNLWTEVWQENVPGSFGGIR (UniProt Q5VYK3)	0.14	0.205
EFEMP1_Q12805_377_CVCPVSNAMCR (UniProt Q12805)	-0.364	-0.416
EIF3B_P55884_302_YWLEEAECR (UniProt P55884)	0.164	0.426
ECI2_O75521_368_LHAVNAEECNVLQGR (UniProt O75521)	-0.304	-0.0596
EFTUD2_Q15029_842_LMEPYYFVEVQAPADCVSAVYTVLAR (UniProt Q15029)	0.205	0.658
EGFL7_Q9UHF1_267+269_IDSLSEQISFLEEQLGSCSCKK (UniProt Q9UHF1)	0.316	-0.483
EED_O75530_254_IMSCGMDHSLK (UniProt O75530)	-0.111	-0.209
EIF2S3_P41091_96_LDDPSCPRPECYR (UniProt P41091)	-0.123	0.265
EIF2B3_Q9NR50_206_FHTGLVDAHLYCLK (UniProt Q9NR50)	-0.00252	-0.338
EIF2A_Q9BY44_80_AVCLEFSPK (UniProt Q9BY44)	-0.0376	0.0922
EIF2A_Q9BY44_366_LISKPVASDSTYFAWCPDGEHILTATCAPR (UniProt Q9BY44)	0.0449	-0.205
EEF1D_P29692_247_KLQIQCVVEDDKVGTDLLEEEITK (UniProt P29692)	-0.0151	-0.344

Target	probe-labelled cysteine peptide fold change (10 µM)	probe-labelled cysteine peptide fold change (50 µM)
EHMT2_Q96KQ7_842_CDLHAVNYHGDTPLHIAAR (UniProt Q96KQ7)	0.0988	0.147
EEF2_P13639_466_YVEPIEDVPCGNIVGLVGVDQFLVK (UniProt P13639)	-0.0177	0.135
ECM1_Q16610_395_HPPSPTRDECFAR (UniProt Q16610)	-0.264	-0.241
EIF2B1_Q14232_115_IADLCHTFIK (UniProt Q14232)	0.0225	0.106
EFNB1_P98172_89+101_LYLVRPEQAAACSTVLDPNVLVTCNRPEQEIR (UniProt P98172)	-0.388	-0.49
EIF2S1_P05198_70_IGRNECVVVIR (UniProt P05198)	-0.0195	0.0284
ECM1_Q16610_384_THHHLCCR (UniProt Q16610)	0.183	0.0137
EEF1D_P29692_247_KLQIQCVVEDDKVGTDLLEEEITKFEEHVQSVDIAAFNK (UniProt P29692)	0.0535	-0.579
EIF1AX_P47813_51_LEAMCFDGVKR (UniProt P47813)	0.0401	-0.252
EFTUD2_Q15029_144+148_TCFVDCLIEQTHPEIR (UniProt Q15029)	-0.176	-0.0405
EEFSEC_P57772_442_LDADIHTNTCR (UniProt P57772)	-0.204	-1.14
EEF1A1_P68104_234_DGNASGTTLLEALDCILPPTRPTDKPLR (UniProt P68104)	-0.0294	-0.384
EDEM1_Q92611_95_RPGPGMCGPANWGYVLGGR (UniProt Q92611)	-0.0266	-0.127
EIF3B_P55884_420_GFHCESSAHWPIFK (UniProt P55884)	0.121	0.105
EEF1A1_P68104_234_DGNASGTTLLEALDCILPPTRPTDKPLRLPLQDVYK (UniProt P68104)	-0.124	-0.435
EEF1A1_P68104_411_SGDAAIVDMVPGKPMCVESFSDYPPLGR (UniProt P68104)	-0.174	-0.359
EIF2AK4_Q9P2K8_118_HCGEVMIFELAYHVQSFLSEHNKPPPK (UniProt Q9P2K8)	0.0411	0.347
EIF2AK4_Q9P2K8_1084_HGAVQLCTPLLLPR (UniProt Q9P2K8)	-0.104	-0.582
EFHD2_Q96C19_172_KAAAGELQEDSGLCVLAR (UniProt Q96C19)	-0.161	-0.894
EIF2D_P41214_442_LDPILCDCILEK (UniProt P41214)	0.0109	-0.148
EIF2S2_P20042_305_LYFLQCETCHSR (UniProt P20042)	0.194	0.583
EEF1A1_P68104_370_NDPPMEAAGFTAQVIILNHPGQISAGYAPVLDCHTAHIACK (UniProt P68104)	0.0417	0.113
EDC4_Q6P2E9_838_ETCSTLAESPR (UniProt Q6P2E9)	-0.291	-0.151

Full records from above.
EFEMP1_Q12805_377_CVCPVSNAMCR (UniProt Q12805) in the list: probe-labelled cysteine peptide fold change (10 µM) = -0.364; probe-labelled cysteine peptide fold change (50 µM) = -0.416
EEFSEC_P57772_442_LDADIHTNTCR (UniProt P57772) in the list: probe-labelled cysteine peptide fold change (10 µM) = -0.204; probe-labelled cysteine peptide fold change (50 µM) = -1.14

Reference: the supplement of paper PMC12067093, “Discovery and optimisation of a covalent ligand for TRIM25 and its application to targeted protein ubiquitination” (Chemical Science, 2025)
